Test [1] has as its target SMAD4 (mouse (endogenous in mouse lung EC)) (UniProt P97471). Briefly: co-IP; IP of SMAD4 from total cell lysate of YAP wild-type and knockout EC, with or without TGFβ for 2 h; species-matching antibody as negative control; western blot.
In test [2] the target is SMAD3 (mouse (endogenous in mouse lung EC)) (UniProt Q8BUN5). Briefly: co-IP; IP of SMAD3 from total cell extracts of YAP wild-type and knockout EC, untreated or TGFβ 45 min; lysis buffer 50 mM Tris-HCl pH 7.4, 150 mM NaCl, 2 mM CaCl2, 0.1% Triton X-100, 0.1% NP-40; overnight at 4°C on protein A or G Sepharose; western blot. A general note: A western blot detects proteins with antibodies after separation by electrophoresis.

Protein sequences, listed by entry. Tags and fused reporters are not part of them. Lines headed by an entry give the natural chain unless they say otherwise; changes in a name come on top. Chains listed by the source or under a name are the forms on record and can include a tag or linker.
UniProt P97471: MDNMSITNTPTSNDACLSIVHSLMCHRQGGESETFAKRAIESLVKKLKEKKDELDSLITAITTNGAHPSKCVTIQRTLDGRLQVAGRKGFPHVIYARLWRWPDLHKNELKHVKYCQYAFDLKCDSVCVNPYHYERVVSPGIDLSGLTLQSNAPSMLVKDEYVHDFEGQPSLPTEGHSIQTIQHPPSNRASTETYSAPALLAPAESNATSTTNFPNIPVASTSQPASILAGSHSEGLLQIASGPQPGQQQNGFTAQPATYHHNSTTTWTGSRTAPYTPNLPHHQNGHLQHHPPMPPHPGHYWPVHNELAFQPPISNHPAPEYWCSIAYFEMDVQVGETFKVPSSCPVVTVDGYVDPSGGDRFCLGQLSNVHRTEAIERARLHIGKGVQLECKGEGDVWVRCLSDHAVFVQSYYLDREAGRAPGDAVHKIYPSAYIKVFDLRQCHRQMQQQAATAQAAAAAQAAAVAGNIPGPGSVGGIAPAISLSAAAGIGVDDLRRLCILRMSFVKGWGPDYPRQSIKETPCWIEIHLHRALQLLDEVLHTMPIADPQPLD
UniProt Q8BUN5: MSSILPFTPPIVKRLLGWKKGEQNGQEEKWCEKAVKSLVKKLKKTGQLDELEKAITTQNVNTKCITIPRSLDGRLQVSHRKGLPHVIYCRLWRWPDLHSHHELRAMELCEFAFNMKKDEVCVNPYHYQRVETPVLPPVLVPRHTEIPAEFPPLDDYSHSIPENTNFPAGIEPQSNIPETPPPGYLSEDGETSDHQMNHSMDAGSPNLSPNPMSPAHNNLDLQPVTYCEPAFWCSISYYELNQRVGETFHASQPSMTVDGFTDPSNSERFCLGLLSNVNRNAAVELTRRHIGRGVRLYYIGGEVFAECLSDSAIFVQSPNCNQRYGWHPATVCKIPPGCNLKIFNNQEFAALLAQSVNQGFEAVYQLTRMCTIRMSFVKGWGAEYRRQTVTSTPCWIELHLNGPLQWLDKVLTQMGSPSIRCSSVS
Yes-associated protein 1 (mouse (endogenous in mouse lung EC)) (P46938-2, form named): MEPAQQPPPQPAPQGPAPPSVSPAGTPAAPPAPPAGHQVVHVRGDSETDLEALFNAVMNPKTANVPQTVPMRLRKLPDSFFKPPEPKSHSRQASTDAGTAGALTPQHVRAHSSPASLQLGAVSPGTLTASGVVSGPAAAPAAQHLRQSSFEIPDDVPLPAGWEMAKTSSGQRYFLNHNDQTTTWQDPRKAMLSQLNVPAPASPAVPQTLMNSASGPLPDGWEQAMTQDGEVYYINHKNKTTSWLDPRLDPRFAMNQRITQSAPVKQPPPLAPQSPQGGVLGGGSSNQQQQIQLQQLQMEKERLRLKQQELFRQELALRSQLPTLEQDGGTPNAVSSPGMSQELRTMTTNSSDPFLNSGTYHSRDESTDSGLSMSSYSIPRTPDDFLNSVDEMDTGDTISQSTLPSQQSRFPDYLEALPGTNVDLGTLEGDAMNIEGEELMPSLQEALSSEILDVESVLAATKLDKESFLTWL

For test [3], the target named is Yes-associated protein 1 (mouse (endogenous in mouse lung EC)) (UniProt P46938). Kind of test: co-IP; IP of YAP from the nuclear or the cytosolic fraction of wild-type EC treated with TGFβ for 45 min; western blot.

These results are taken from publication PMC8353525.

No constants are given. Whether binding was seen depends on the method and setting. In cells and extracts the contact can be indirect. Some entries that bind do so weakly or less than the wild type.

With “Yes-associated protein 1 (from UniProt P46938-2 1-472)”, the binding result was “no binding” in test [1] and “binds” in test [2].

With SMAD4 (from UniProt P97471 1-551), in test [2], the binding entry is on record as “binds”.

For SMAD3 (from UniProt Q8BUN5 1-425), the binding result in test [3] is “binds”.
